The other results are listed elsewhere or left out.
Compound: CC1Cc2ccccc2N1C(=O)C1CCCN(C1)C(=O)CCl (mixture of isomers) [TRIM25 ligand 11 (diastereomer mixture)]
Assay: probe-labelled cysteine peptide fold change vs DMSO (competition) (log2 fold change); higher = less target engagement (more negative = stronger competition)
Settings: 50 µM; THP-1; incubation time: 4 h
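Also: competitive chemoproteomic profiling in live THP-1 cells with an iodoacetamide desthiobiotin (IA-DTB) probe, comparing probe-labelled peptide intensities in compound-treated cells against DMSO-treated controls.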

Row | Target | probe-labelled cysteine peptide fold change
1 | SMG1_Q96Q15_3587_SVACSPK (UniProt Q96Q15) | -0.0697
2 | SMG8_Q8ND04_611_STGACNCGR (UniProt Q8ND04) | -0.0993
3 | SLFN13_Q68D06_286_LPIVHFCSSKPR (UniProt Q68D06) | 0.00514
4 | SLC31A1_O15431_189_AVVVDITEHCH (UniProt O15431) | 0.165
5 | SLX4_Q8IY92_786_FGVSELVHLCEQVPIATDSEGKPWEEK (UniProt Q8IY92) | 0.116
6 | SMPD2_O60906_189_KADVVLLCGDLNMHPEDLGCCLLK (UniProt O60906) | 0.0116
7 | SLC27A2_O14975_414_YDVEKDEPVRDENGYCVR (UniProt O14975) | -0.0311
8 | SNRNP200_O75643_302_TASDDRECENQLVLLLGFNTFDFIK (UniProt O75643) | 0.0958
9 | SMAP2_Q8WU79_196_STAPVMDLLGLDAPVACSIANSK (UniProt Q8WU79) | -0.252
10 | SMC4_Q9NTJ3_110_FSCIIGPNGSGK (UniProt Q9NTJ3) | 0.25
11 | SLK_Q9H2G2_1138_DLQLQCEANVR (UniProt Q9H2G2) | -0.119
12 | SMARCA4_P51532_1046_ICNHPYMFQHIEESFSEHLGFTGGIVQGLDLYR (UniProt P51532) | -0.123
13 | SMC2_O95347_326_NLACEESK (UniProt O95347) | -0.0135
14 | SMPD1_P17405_590_GHPPSEPCGTPCR (UniProt P17405) | 0.368
15 | SMCHD1_A6NHR9_1823_DLLTFPDNVEHCETVFGMLLGDTIILDNLDAANHYR (UniProt A6NHR9) | 0.275
16 | SLC3A2_P08195_431_WCSWSLSQAR (UniProt P08195) | -0.013
17 | SMCHD1_A6NHR9_444_ETYPDDPCFPSK (UniProt A6NHR9) | -0.175
18 | SMARCC1_Q92922_520_NLTGDVCAVMR (UniProt Q92922) | 0.0284

Reprinted from above (3 entries):
Row | Target | probe-labelled cysteine peptide fold change
5 | SLX4_Q8IY92_786_FGVSELVHLCEQVPIATDSEGKPWEEK (UniProt Q8IY92) | 0.116
6 | SMPD2_O60906_189_KADVVLLCGDLNMHPEDLGCCLLK (UniProt O60906) | 0.0116
7 | SLC27A2_O14975_414_YDVEKDEPVRDENGYCVR (UniProt O14975) | -0.0311

The list goes on.

Row | Target | probe-labelled cysteine peptide fold change
19 | SMYD5_Q6GMV2_378_ENYLFVCSCPK (UniProt Q6GMV2) | -0.119
20 | SMN2_Q16637_98_CSAIWSEDGCIYPATIASIDFKR (UniProt Q16637) | -0.214
21 | SMARCA2_P51531_1175_LCTVNSVEEK (UniProt P51531) | 0.17
22 | SMAD3_P84022_109_AMELCEFAFNMK (UniProt P84022) | 0.161
23 | SLMAP_Q14BN4_120_KVTHGCIVSTIK (UniProt Q14BN4) | 0.0755
24 | SMYD3_Q9H7B4_261+263_DQYCFECDCFR (UniProt Q9H7B4) | 0.00887
25 | SMC6_Q96SB8_1013_CLDEFDVYMDMVNRR (UniProt Q96SB8) | 0.139
26 | SLC44A1_Q8WWI5_98_YVFFLDPCNLDLINR (UniProt Q8WWI5) | 0.155
27 | SLC9A1_P19634_794_CLSDPGPHPEPGEGEPFFPK (UniProt P19634) | 0.0131
28 | SMC1A_Q14683_613+619_ALQYACGNALVCDNVEDARR (UniProt Q14683) | 0.0553
29 | SMAD4_Q13485_391_GVQLECK (UniProt Q13485) | 0.21
30 | SMCHD1_A6NHR9_1018_IEIPSCK (UniProt A6NHR9) | -0.0233
31 | SLFN13_Q68D06_631_ILYVCENQPLR (UniProt Q68D06) | 0.195
32 | SLC4A1AP_Q9BWU0_399_ALQGFFDREGEELEYEFDEQGHSTWLCR (UniProt Q9BWU0) | 0.0595
33 | SMARCA5_O60264_1001_CNTLITLIERENMELEEK (UniProt O60264) | -0.0556
34 | SLC4A1AP_Q9BWU0_200_LSGCDVCLEHPSVSR (UniProt Q9BWU0) | 0.0426
35 | SMARCC1_Q92922_164_TLVQNNCLTRPNIYLIPDIDLK (UniProt Q92922) | -0.0481

Reference: the supplement of paper PMC12067093, “Discovery and optimisation of a covalent ligand for TRIM25 and its application to targeted protein ubiquitination” (Chemical Science, 2025)
